Reference: the supplement of paper PMC8728848
The other results are listed elsewhere or left out.

Key:
Test in all cases: glycan array binding signal (z-score within array); higher = stronger binding
Conditions in all cases: glycan notation: IUPAC condensed, linker removed
[1] = biological target: Gal(b1-4)GlcNAc(b1-3)[Gal(b1-4)GlcNAc(b1-6)]GalNAc
In short: (§1)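 Negative Z-scores can be read as non-binding. The Z-score is calculated within each array and then averaged across arrays of one protein sequence at different concentrations or buffers and across linkers. Arrays, 3228 in all, were curated from the Consortium for Functional Glycomics database and kept only where the protein sequence was available.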

[2] = biological target: Gal(b1-4)GlcNAc(b1-3)[GlcNAc(b1-6)]Gal(b1-4)GlcNAc
In short: as §1

[3] = biological target: Gal(b1-4)GlcNAc(b1-6)Gal(b1-4)GlcNAc
In short: as §1

[4] = biological target: Gal(b1-4)GlcNAc(b1-6)GalNAc
In short: as §1

[5] = biological target: Gal(b1-4)GlcNAc(b1-6)[Gal(b1-3)]GalNAc
In short: as §1

Gal(b1-6)Gal = biological target: Gal(b1-6)Gal
In short: as §1

Gal3S(b1-3)GalNAc = biological target: Gal3S(b1-3)GalNAc
In short: as §1

Gal3S(b1-3)GlcNAc = biological target: Gal3S(b1-3)GlcNAc
In short: as §1

[6] = biological target: Gal3S(b1-3)[Fuc(a1-4)]GlcNAc
In short: as §1

Gal3S(b1-4)Glc = biological target: Gal3S(b1-4)Glc
In short: as §1

Gal3S(b1-4)Glc6S = biological target: Gal3S(b1-4)Glc6S
In short: as §1

Gal3S(b1-4)GlcNAc = biological target: Gal3S(b1-4)GlcNAc
In short: as §1

Gal3S(b1-4)GlcNAc6S = biological target: Gal3S(b1-4)GlcNAc6S
In short: as §1

[7] = biological target: Gal3S(b1-4)[Fuc(a1-3)]Glc
In short: as §1

[8] = biological target: Gal3S(b1-4)[Fuc(a1-3)]Glc6S
In short: as §1

Gal3S4S(b1-4)GlcNAc = biological target: Gal3S4S(b1-4)GlcNAc
In short: as §1

Gal3S6S(b1-4)GlcNAc = biological target: Gal3S6S(b1-4)GlcNAc
In short: as §1

Gal3S6S(b1-4)GlcNAc6S = biological target: Gal3S6S(b1-4)GlcNAc6S
In short: as §1

Gal4S(b1-4)GlcNAc = biological target: Gal4S(b1-4)GlcNAc
In short: as §1

Gal4S6S(b1-4)GlcNAc = biological target: Gal4S6S(b1-4)GlcNAc
In short: as §1

Gal6S(b1-3)GlcNAc = biological target: Gal6S(b1-3)GlcNAc
In short: as §1

Gal6S(b1-3)GlcNAc6S = biological target: Gal6S(b1-3)GlcNAc6S
In short: as §1

Gal6S(b1-4)Glc = biological target: Gal6S(b1-4)Glc
In short: as §1

Gal6S(b1-4)Glc6S = biological target: Gal6S(b1-4)Glc6S
In short: as §1

Gal6S(b1-4)GlcNAc = biological target: Gal6S(b1-4)GlcNAc
In short: as §1

Gal6S(b1-4)GlcNAc6S = biological target: Gal6S(b1-4)GlcNAc6S
In short: as §1

GalNAc(a1-3)Gal = biological target: GalNAc(a1-3)Gal
In short: as §1

GalNAc(a1-3)GalNAc = biological target: GalNAc(a1-3)GalNAc
In short: as §1

[9] = biological target: GalNAc(a1-3)GalNAc(b1-3)Gal(a1-4)Gal(b1-4)Glc
In short: as §1

[10] = biological target: GalNAc(a1-3)GalNAc(b1-3)Gal(a1-4)Gal(b1-4)GlcNAc
In short: as §1

GalNAc(b1-3)Gal = biological target: GalNAc(b1-3)Gal
In short: as §1

[11] = biological target: GalNAc(b1-3)Gal(a1-4)Gal(b1-4)GlcNAc
In short: as §1

[12] = biological target: GalNAc(b1-3)Gal(a1-4)Gal(b1-4)GlcNAc(b1-3)Gal(b1-4)Glc
In short: as §1

[13] = biological target: GalNAc(b1-3)Gal(a1-6)Gal(b1-4)Glc
In short: as §1

GalNAc(b1-3)GalNAc = biological target: GalNAc(b1-3)GalNAc
In short: as §1

GalNAc(b1-4)Gal(b1-4)Glc = biological target: GalNAc(b1-4)Gal(b1-4)Glc
In short: as §1

GalNAc(b1-4)GlcNAc = biological target: GalNAc(b1-4)GlcNAc
In short: as §1

[14] = biological target: GalNAc(b1-4)GlcNAc(b1-2)Man(a1-3)[GalNAc(b1-4)GlcNAc(b1-2)Man(a1-6)]Man(b1-4)GlcNAc(b1-4)GlcNAc
In short: as §1

B1: CD72 ectodomain (Homo sapiens), P21854 (protein)
chain: RYLQVSQQLQQTNRVLEVTNSSLRQQLRLKITQLGQSAEDLQGSRRELAQSQEALQVEQRAHQAAEGQLQACQADRQKTKETLQSEEQQRRALEQKLSNMENRLKPFFTCGSADTCCPSGWIMHQKSCFYISLTSKNWQESQKQCETLSSKLATFSEIYPQSHSYYFLNSLLPNGGSGNSYWTGLSSNKDWKLTDDTQRTRTYAQSSKCNKVHKTWSWWTLESESCRSSLPYICEMTAFRFPD
glycan array binding signal (z-score) [1]: -0.646 | glycan array binding signal (z-score) [2]: 1.84 | glycan array binding signal (z-score) [3]: -2.09 | glycan array binding signal (z-score) [4]: 0.142 | glycan array binding signal (z-score) [5]: 0.369 | glycan array binding signal (z-score) (Gal(b1-6)Gal): -1.05 | glycan array binding signal (z-score) (Gal3S(b1-3)GalNAc): 1.38 | glycan array binding signal (z-score) (Gal3S(b1-3)GlcNAc): 0.422 | glycan array binding signal (z-score) [6]: -0.495 | glycan array binding signal (z-score) (Gal3S(b1-4)Glc): 0.022 | glycan array binding signal (z-score) (Gal3S(b1-4)Glc6S): -0.777 | glycan array binding signal (z-score) (Gal3S(b1-4)GlcNAc): -0.696 | glycan array binding signal (z-score) (Gal3S(b1-4)GlcNAc6S): 1.19 | glycan array binding signal (z-score) [7]: -0.207 | glycan array binding signal (z-score) [8]: 0.788 | glycan array binding signal (z-score) (Gal3S4S(b1-4)GlcNAc): 0.802 | glycan array binding signal (z-score) (Gal3S6S(b1-4)GlcNAc): -0.166 | glycan array binding signal (z-score) (Gal3S6S(b1-4)GlcNAc6S): -2.15 | glycan array binding signal (z-score) (Gal4S(b1-4)GlcNAc): 0.2 | glycan array binding signal (z-score) (Gal4S6S(b1-4)GlcNAc): 0.281 | glycan array binding signal (z-score) (Gal6S(b1-3)GlcNAc): -0.189 | glycan array binding signal (z-score) (Gal6S(b1-3)GlcNAc6S): 0.798 | glycan array binding signal (z-score) (Gal6S(b1-4)Glc): -0.925 | glycan array binding signal (z-score) (Gal6S(b1-4)Glc6S): -0.356 | glycan array binding signal (z-score) (Gal6S(b1-4)GlcNAc): -0.355 | glycan array binding signal (z-score) (Gal6S(b1-4)GlcNAc6S): 0.118 | glycan array binding signal (z-score) (GalNAc(a1-3)Gal): 0.455 | glycan array binding signal (z-score) (GalNAc(a1-3)GalNAc): 0.074 | glycan array binding signal (z-score) [9]: 0.806 | glycan array binding signal (z-score) [10]: -0.608 | glycan array binding signal (z-score) (GalNAc(b1-3)Gal): -0.844 | glycan array binding signal (z-score) [11]: -0.315 | glycan array binding signal (z-score) [12]: -0.842 | glycan array binding signal (z-score) [13]: 0.123 | glycan array binding signal (z-score) (GalNAc(b1-3)GalNAc): -0.248 | glycan array binding signal (z-score) (GalNAc(b1-4)Gal(b1-4)Glc): 1.59 | glycan array binding signal (z-score) (GalNAc(b1-4)GlcNAc): 0.596 | glycan array binding signal (z-score) [14]: -0.456
